Experimental findings from the supplement of paper PMC12819154, “High-throughput peptide-centric local stability assay extends protein–ligand identification to membrane proteins, tissues and bacteria” (Nature Structural & Molecular Biology, 2025) are described below.

Chains of the proteins cited; added tags and fusions are not shown. Lines headed by an entry give the natural chain unless they say otherwise; changes in a name come on top.
UniProt Q9UPY6: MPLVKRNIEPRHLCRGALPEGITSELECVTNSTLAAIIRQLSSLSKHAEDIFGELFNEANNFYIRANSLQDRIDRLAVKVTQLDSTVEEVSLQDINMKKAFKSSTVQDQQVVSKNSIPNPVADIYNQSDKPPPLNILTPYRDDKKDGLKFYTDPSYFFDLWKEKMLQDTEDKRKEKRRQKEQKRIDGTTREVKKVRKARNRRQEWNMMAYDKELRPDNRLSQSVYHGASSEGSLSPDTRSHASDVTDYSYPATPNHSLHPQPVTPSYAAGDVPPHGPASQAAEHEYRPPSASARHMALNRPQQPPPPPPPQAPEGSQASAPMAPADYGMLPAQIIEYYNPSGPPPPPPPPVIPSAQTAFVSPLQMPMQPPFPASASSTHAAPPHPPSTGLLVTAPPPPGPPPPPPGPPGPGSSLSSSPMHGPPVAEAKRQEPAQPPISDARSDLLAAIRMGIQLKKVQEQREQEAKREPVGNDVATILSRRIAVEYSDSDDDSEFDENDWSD
UniProt Q9UHN1: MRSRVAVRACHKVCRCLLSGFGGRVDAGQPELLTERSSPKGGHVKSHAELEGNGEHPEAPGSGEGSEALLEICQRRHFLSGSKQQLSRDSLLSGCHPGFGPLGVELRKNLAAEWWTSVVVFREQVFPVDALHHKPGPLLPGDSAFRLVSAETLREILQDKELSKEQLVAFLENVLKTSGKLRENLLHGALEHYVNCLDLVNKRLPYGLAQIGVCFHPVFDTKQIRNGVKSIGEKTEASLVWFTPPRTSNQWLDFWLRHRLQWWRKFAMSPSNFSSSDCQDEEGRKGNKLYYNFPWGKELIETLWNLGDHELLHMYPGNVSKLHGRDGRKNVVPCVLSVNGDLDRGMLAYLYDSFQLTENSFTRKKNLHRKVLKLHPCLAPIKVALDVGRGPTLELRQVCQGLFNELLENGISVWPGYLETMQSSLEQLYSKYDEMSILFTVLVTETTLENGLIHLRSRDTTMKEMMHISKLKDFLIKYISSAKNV
UniProt Q9UNT1: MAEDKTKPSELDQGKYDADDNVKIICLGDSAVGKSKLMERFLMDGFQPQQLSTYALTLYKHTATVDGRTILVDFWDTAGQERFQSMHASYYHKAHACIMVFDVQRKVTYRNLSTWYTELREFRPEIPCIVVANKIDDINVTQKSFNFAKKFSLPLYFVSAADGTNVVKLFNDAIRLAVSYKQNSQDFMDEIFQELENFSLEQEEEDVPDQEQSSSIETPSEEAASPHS
UniProt Q9UQ84: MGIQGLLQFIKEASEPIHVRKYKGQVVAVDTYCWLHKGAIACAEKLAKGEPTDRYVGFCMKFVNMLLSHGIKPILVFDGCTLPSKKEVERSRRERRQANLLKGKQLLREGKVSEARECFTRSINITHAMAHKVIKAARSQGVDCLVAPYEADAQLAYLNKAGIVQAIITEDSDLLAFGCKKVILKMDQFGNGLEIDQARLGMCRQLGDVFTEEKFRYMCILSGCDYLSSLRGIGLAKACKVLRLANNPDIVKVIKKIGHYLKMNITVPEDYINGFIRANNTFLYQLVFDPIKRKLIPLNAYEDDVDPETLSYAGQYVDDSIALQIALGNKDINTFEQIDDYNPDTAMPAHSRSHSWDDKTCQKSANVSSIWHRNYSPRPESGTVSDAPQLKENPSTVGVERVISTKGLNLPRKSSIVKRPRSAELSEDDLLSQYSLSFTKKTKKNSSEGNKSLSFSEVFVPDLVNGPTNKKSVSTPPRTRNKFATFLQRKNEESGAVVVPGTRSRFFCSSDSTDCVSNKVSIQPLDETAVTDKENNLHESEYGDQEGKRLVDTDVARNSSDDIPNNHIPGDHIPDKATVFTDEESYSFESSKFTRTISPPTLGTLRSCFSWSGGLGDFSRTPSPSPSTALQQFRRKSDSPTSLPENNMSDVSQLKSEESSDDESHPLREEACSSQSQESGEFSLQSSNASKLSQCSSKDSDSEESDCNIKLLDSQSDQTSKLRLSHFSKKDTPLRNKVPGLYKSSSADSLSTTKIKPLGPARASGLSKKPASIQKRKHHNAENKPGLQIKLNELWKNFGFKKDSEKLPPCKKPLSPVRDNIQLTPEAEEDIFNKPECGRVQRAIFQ
UniProt Q9UN36: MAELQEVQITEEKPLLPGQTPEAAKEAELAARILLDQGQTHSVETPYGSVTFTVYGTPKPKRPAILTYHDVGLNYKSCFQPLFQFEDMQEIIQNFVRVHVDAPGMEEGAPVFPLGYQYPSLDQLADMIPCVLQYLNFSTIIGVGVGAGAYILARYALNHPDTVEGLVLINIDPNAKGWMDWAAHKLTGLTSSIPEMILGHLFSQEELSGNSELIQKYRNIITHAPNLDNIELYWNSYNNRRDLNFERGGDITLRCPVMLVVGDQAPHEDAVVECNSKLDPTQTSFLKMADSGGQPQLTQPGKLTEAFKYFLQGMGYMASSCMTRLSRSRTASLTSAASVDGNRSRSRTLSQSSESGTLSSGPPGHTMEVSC
UniProt Q9UNQ2: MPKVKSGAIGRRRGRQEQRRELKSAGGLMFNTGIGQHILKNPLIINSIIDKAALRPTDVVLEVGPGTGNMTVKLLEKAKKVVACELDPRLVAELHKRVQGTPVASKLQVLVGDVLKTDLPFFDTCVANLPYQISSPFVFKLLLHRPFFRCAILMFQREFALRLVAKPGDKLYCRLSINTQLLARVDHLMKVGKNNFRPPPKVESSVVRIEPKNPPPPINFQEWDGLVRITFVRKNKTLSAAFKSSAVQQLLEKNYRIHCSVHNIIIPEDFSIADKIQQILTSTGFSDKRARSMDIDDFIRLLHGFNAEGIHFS
UniProt Q9UHD9, whole entry: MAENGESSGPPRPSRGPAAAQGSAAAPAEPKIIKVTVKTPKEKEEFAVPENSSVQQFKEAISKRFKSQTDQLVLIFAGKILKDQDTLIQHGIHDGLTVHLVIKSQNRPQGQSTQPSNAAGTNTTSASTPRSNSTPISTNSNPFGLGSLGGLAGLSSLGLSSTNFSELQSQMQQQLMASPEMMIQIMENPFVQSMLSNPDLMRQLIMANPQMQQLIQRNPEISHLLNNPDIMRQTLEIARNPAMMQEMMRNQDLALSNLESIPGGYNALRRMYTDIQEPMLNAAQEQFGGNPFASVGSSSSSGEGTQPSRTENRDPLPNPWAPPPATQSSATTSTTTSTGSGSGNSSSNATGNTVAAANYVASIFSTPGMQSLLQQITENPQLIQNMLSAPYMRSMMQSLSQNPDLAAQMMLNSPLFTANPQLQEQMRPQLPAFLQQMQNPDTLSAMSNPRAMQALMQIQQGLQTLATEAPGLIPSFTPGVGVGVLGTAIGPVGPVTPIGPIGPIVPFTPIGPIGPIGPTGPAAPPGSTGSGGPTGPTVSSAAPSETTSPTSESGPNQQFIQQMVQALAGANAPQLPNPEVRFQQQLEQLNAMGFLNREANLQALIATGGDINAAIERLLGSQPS
UniProt Q9UKG1: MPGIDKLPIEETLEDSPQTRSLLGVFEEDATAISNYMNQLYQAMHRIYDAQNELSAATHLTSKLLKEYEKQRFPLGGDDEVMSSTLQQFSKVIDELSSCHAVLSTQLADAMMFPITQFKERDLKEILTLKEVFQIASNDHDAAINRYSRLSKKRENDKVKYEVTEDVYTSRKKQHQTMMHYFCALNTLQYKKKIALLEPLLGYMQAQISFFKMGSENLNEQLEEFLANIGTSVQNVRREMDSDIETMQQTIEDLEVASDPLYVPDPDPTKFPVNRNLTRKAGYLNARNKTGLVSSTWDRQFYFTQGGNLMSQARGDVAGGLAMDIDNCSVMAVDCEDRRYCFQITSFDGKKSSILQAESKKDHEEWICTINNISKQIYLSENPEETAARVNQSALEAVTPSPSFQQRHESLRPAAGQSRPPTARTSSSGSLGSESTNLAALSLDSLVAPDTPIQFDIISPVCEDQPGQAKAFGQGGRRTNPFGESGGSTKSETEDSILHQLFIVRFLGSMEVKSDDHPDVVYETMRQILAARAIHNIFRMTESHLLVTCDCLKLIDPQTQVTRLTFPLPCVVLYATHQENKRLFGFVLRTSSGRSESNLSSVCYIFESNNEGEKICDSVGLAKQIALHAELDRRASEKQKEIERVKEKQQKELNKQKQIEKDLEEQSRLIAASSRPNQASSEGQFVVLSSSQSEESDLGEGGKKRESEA
UniProt Q9UP95: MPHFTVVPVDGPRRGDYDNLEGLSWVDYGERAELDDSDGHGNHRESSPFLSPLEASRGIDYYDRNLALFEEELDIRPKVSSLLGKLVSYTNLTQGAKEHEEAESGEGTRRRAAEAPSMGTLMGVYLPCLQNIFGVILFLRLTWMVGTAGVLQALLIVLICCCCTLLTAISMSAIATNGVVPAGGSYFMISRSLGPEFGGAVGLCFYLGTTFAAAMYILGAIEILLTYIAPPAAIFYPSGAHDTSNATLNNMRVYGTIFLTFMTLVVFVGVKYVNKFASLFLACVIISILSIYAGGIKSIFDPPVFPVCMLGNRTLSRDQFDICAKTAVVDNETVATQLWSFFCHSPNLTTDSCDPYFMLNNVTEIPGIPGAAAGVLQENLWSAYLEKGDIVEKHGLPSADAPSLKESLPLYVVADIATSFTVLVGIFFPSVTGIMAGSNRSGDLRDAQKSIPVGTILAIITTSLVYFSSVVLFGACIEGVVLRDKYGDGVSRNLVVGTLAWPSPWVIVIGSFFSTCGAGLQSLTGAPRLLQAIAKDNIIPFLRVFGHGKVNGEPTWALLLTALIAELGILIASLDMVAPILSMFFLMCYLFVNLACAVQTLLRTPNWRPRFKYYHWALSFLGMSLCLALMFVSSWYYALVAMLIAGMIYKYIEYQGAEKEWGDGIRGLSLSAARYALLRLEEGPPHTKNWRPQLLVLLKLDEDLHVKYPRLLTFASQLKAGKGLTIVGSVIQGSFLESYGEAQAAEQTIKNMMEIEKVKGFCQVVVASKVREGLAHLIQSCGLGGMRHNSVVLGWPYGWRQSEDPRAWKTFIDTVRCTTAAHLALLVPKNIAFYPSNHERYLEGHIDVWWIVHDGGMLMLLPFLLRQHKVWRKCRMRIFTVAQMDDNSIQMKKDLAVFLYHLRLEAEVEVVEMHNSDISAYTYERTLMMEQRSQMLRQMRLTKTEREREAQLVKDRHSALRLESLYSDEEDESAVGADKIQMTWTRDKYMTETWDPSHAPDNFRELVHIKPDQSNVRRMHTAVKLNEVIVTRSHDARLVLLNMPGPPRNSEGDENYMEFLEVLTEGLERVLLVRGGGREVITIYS

The list shows a part of the results. Most values lie at the level of the controls, where differences are scatter.

Compound in this test: Cc1nc(Nc2ncc(C(=O)Nc3c(C)cccc3Cl)s2)cc(N2CCN(CCO)CC2)n1 [dasatinib]
The experiment in a line: log2 fold change of tryptic peptide abundance, ligand vs vehicle (limited proteolysis) (log2 ratio); higher = more trypsin-susceptible (destabilized). Conditions: ligand concentration: 5 uM; sample: K562 cleared lysate.
Regarding “UniProt Q9UPY6 (peptide sequence: MLQDTEDK, peptide start residue: 165)”, the log2 fold change is -0.331.
In the case of “POLG2 (peptide sequence: VDAGQPELLTER, peptide start residue: 25) (UniProt Q9UHN1)”, the log2 fold change is 0.17.
Take “UniProt Q9UNT1 (peptide sequence: AHACIMVFDVQRK, peptide start residue: 94)”: the log2 fold change was found to be 0.077.
With “EXO1 (peptide sequence: FATFLQR, peptide start residue: 483) (UniProt Q9UQ84)” the figure was -0.327; with “NDRG2 (peptide sequence: LDPTQTSFLK, peptide start residue: 278) (UniProt Q9UN36)”, 0.00766.
Regarding “UniProt Q9UNQ2 (peptide sequence: IHCSVHNIIIPEDFSIADK, peptide start residue: 257)”, the log2 fold change was determined as 1.12.
As to “UBQLN2 (peptide sequence: NPEISHLLNNPDIMR, peptide start residue: 218) (UniProt Q9UHD9)”, the log2 fold change came out at 0.0522.
As for “APPL1 (peptide sequence: TNPFGESGGSTK, peptide start residue: 479) (UniProt Q9UKG1)”, the log2 fold change was determined as 0.265.
Next, “SLC12A4 (peptide sequence: TLMMEQR, peptide start residue: 926) (UniProt Q9UP95)”: -0.0745.
